# In all, about 33,000 sequences were measured (“E-score (-0.5 to 0.5)”: median about -0.016, highest 2% from about 0.3 on). Some of the results follow.
# Target: T1, Yer184c (UniProt P39961)
# T1 sequence: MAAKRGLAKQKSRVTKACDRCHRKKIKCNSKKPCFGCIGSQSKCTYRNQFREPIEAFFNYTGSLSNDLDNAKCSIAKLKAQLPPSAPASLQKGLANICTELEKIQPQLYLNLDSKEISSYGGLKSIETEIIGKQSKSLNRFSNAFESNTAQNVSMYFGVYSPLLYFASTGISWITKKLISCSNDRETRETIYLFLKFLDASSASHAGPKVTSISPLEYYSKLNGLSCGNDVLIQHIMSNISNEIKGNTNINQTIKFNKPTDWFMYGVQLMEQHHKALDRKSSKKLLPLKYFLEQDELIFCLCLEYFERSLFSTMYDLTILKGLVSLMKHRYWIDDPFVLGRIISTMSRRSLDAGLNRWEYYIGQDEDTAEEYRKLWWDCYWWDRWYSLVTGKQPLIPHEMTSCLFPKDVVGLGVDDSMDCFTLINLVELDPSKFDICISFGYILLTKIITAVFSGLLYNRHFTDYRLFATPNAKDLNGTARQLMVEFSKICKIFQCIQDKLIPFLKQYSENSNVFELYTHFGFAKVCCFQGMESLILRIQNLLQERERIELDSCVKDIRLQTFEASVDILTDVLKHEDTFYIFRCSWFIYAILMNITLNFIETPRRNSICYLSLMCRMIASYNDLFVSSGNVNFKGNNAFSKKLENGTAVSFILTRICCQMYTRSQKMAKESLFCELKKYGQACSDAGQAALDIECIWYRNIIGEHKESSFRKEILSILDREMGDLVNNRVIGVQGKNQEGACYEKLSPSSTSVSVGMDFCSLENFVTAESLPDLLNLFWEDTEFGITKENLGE
# Experiment: PBM E-score (8-mer binding enrichment) (E-score (-0.5 to 0.5)); higher = stronger / more preferred TF binding
# Details: protein concentration: 100 nM; construct: GST-full length
# In short: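 Using PURExpress in vitro transcription/translation, GST-tagged yeast transcription factors were made in full-length or DNA-binding-domain form. These were applied at about 100-200 nM to double-stranded universal all-10-mer Agilent arrays, and bound protein was detected with fluorescent anti-GST. Scans were normalised with masliner before the Universal PBM Analysis Suite assigned E-scores to ungapped eight-base words pooled with their reverse complements.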
row,Sequence,PBM E-score
1,CGAAACAA,0.293
2,AAGAGCGA,-0.165
3,GCAATCCA,0.0488
4,GAAACTCA,0.231
5,CGGATAAG,0.217
6,CGTGGCCC,-0.147
7,AATCTCGA,0.0755
8,CGACTGCG,-0.121
9,GGGGTGCA,-0.136
10,ACCATATA,0.109
11,ACTCGGAA,0.341
12,TTCAGCAA,0.0984
13,ACAACCGC,0.116
14,TATCGGCA,0.213
15,CCCCAATC,-0.221
16,GGGCCCAC,-0.169
17,ACCGCTCA,0.0506
18,ATTTCGAC,-0.128
19,AATTTGAT,0.0532
20,CGTCGCTC,-0.0648
21,CGGGAGTA,0.199
22,GCAACAGC,-0.0717
23,ATGAGTAG,0.014
24,ACGTTGTC,-0.161

# Reformatted bar-delimited: part of the list above
row | Sequence | PBM E-score
10 | ACCATATA | 0.109
11 | ACTCGGAA | 0.341
12 | TTCAGCAA | 0.0984
13 | ACAACCGC | 0.116
14 | TATCGGCA | 0.213
15 | CCCCAATC | -0.221
16 | GGGCCCAC | -0.169

# (next part)

row,Sequence,PBM E-score
1,CGAGACAG,0.0103
2,GAAAGTTA,0.174
3,GACCTATC,-0.0806
4,CATGAGCG,-0.173
5,GCCCTAGA,-0.261
6,AATAAACT,0.163
7,AAGCACGC,0.0088
8,TCCTACAA,0.0981
9,AGTCGCAG,-0.0702
10,ACCAGGCT,-0.247
11,GGTTGGAA,-0.0213
12,TGCCCACA,-0.241
13,GCCCCGTA,-0.292
14,GGCCACTA,-0.192
15,CAACCCAA,-0.114
16,ATGCACGC,0.0543
17,CGTACAAC,0.0683
18,GTCCTGCA,-0.122
19,ACATTTCG,-0.0595
20,CCCCCCGA,-0.282
21,ATGGTCCG,0.259
22,CAAGAAAC,0.21
23,ACATCAGT,-0.062
24,ATGCGGGC,-0.23

row,Sequence,PBM E-score
1,CGGTGTTA,0.171
2,ACGGGGTG,-0.181
3,TGAATTAA,0.222
4,AGATTGGG,0.0343
5,CCTTCACC,-0.14
6,CAACTATA,-0.0575
7,ACCGTCCA,0.0203
8,AGGAATTC,-0.0648
9,AAAACGCT,-0.122
10,ATGCAGCA,0.0105
11,CAACGGTG,-0.266
12,CACCGCGA,-0.247
13,ACGTCAAT,-0.246
14,AAAATTTC,0.149
15,ACTAGGTC,0.015
16,GATCGCCC,-0.156
17,AATGTTTA,-0.00557
18,CGATTTAC,0.0316
19,ATTACCCA,0.071
20,TCTTATCA,0.197
21,ACGAGCCG,0.22
22,CGACGGCC,0.0317
23,ACAAGCTA,-0.0434
24,AAACTCAG,-0.00485

row,Sequence,PBM E-score
1,CGCCCGAA,0.0404
2,CCACCATC,-0.272
3,ATTCCATA,0.147
4,TGGGCTAA,-0.147
5,AGGAGCCC,-0.185
6,AAGTCGAC,0.251
7,AACGGTCG,0.0793
8,CCTCGGCG,0.355
9,AAAACACA,0.119
10,AAAAAAAG,0.143
11,CCTCAGTC,-0.114
12,GATGAAAA,0.142
13,CTTCAACA,0.0953
14,CTTCTTAA,0.0941
15,AAATGCTC,-0.0216
16,AGGGCGCG,-0.0851
17,AGCAATTC,-0.00487
18,ACTCGGTA,-0.00121
19,AAGATCAG,-0.0697
20,TAGCCCTA,-0.174
21,CCTATTCG,-0.00975
22,CTCTGATA,0.0668

# From the supplement of paper PMC3334620
